Results are given in words; binding and its absence hold for the method and conditions named. Binding seen in cells or lysates may run through a third protein. Some results given as binding are weak or reduced against the parent protein; the word gives no strength. Sequences can lack the tags named with a protein.
Biological target: T1, Myc-TRIM67 (mouse) (UniProt Q505D9)
T1 sequence: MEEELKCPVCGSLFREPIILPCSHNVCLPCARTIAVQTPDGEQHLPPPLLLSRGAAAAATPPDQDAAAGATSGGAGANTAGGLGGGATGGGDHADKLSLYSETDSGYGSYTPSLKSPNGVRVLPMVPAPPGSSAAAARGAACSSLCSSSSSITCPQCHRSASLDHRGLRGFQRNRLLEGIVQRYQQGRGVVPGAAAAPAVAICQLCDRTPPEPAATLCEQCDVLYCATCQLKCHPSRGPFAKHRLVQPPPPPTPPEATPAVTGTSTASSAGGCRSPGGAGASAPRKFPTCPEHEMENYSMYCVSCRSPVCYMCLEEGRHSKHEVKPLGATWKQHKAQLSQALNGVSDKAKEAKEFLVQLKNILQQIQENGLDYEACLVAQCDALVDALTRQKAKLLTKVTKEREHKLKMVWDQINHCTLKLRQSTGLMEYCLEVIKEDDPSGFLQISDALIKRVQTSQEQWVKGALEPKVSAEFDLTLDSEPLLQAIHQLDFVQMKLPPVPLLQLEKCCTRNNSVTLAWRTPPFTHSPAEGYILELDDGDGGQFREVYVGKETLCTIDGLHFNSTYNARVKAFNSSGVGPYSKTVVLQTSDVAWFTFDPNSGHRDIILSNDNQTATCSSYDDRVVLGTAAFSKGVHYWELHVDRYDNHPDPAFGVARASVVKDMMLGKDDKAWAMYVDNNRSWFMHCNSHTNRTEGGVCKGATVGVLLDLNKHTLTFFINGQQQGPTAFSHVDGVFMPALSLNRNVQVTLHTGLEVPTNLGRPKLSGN
Assay: co-IP

binding: binds
B1: GFP-EVL (protein, UniProt P70429 1-414)
chain: MSEQSICQARASVMVYDDTSKKWVPIKPGQQGFSRINIYHNTASSTFRVVGVKLQDQQVVINYSIVKGLKYNQATPTFHQWRDARQVYGLNFASKEEATTFSNAMLFALNIMNSQEGGPSTQRQVQNGPSPEEMDIQRRQVMEQQHRQESLERRISATGPILPPGHPSSAASTTLSCSGPPPPPPPPVPPPPTGSTPPPPPPLPAGGAQGTNHDESSASGLAAALAGAKLRRVQRPEDASGGSSPSGTSKSDANRASSGGGGGGLMEEMNKLLAKRRKAASQTDKPADRKEDESQTEDPSTSPSPGTRATSQPPNSSEAGRKPWERSNSVEKPVSSLLSRTPSVAKSPEAKSPLQSQPHSRVKPAGSVNDVGLDALDLDRMKQEILEEVVRELHKVKEEIIDAIRQELSGISTT
